# Experimental data taken from patent US20030171273, “Novel transcription factor, BP1” (published 2003).
# Construct, isoform or probe ends are uncertain for at least one entry. Results from cells or extracts need not show a direct contact. Protein sequences can lack the tags named with them.
# Molecular target: T1, BP1 (endogenous, K562 nuclear extract) (Homo sapiens) (UniProt Q92988)
# T1 sequence (limits assumed): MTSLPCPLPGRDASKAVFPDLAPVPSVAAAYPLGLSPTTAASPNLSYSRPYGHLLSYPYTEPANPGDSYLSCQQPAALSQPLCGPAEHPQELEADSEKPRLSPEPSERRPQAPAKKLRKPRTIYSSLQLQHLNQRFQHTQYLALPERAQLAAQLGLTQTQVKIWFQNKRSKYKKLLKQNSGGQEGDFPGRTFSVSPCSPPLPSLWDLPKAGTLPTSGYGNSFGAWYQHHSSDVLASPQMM
# Assay: competition with a labelled probe
# Details: CITED Berg 1991, Elion 1992, Zeng 1994; EMSA competition; protein in an extract; variant of -530 Reference (Silencer I)
sequence,measurement,value
TGTACATATACACATATATATATATATATATTTTTTCTTTTCTTACCAGAAGGTTT (double strand) [-530 Indian haplotype (Silencer I)],binding result,binds
